# Hit rate of the full screen: of about 300,000 compounds, about 3,700 (1.2%) were called active. The inconclusive results got no clear call from the source; some entries with a clear call stand among them for comparison. Calls follow the shape of the full dose curve; tested in HEK293 cells. Where the call is inconclusive, the potency comes from a doubtful curve fit.
# Experiment: qHTS for Inhibitors of binding or entry into cells for Lassa Virus; also: nearly all actives have a fitted effect of over 50% in size
# Details: Lassa virus pseudotype entry inhibition, cell reporter; activity change, negative = inhibition: at 37.9 µM (top of the series) unless noted
# % is scaled to controls: 0 for no effect and ±100 for the full control effect; potency is read from the fitted curve at half-maximal effect.
SMILES,"activity change, negative = inhibition",Potency
O=C(CCNS(=O)(=O)c1ccc(Cl)cc1)N1CCCCCC1,inactive: -8.01%,–
O=C1OC(c2ccccc2)(c2cc(Br)ccc2O)c2ccccc21 (stereo unspecified),–,"inconclusive: 25.1 µM [inhibitor, single point]"
COC(=O)C(O)(c1ccc(NC(=O)NC2CCCCC2)cc1)C(F)(F)F (stereo unspecified),–,"inconclusive: 10.3 µM [inhibitor, partial curve]"
CCCC(=O)c1cc(F)c(N2CCN(C(=O)OCC)CC2)cc1C,–,"inconclusive: 6.51 µM [inhibitor, single point]"
CC(=O)c1ccc(OC(=O)C2c3ccccc3Oc3ccccc32)cc1,inactive: 20.4%,–
O=C(N/N=C\c1ccc(F)cc1)c1csnn1,–,"inconclusive: 15.8 µM [activator, single point]"
Cc1cc(C)nc(SCC(=O)N/N=C/c2cc(C)n(-c3ccccc3C)c2C)n1,–,"inconclusive: 7.94 µM [inhibitor, partial curve, poor fit]"
COc1ccc(Nc2nc(-c3cccc(Cl)c3)c3c(n2)-c2ccccc2OC3)cc1,inactive: 4.09% [at 46.1 µM],–
CCOc1ccccc1CNC(=O)Cc1ccc(NC(=O)N2CCCCc3ccccc32)cc1,–,active: 4.47 µM
CCc1ccc(CNC(=O)c2ccc3c(Cl)c4c(nc3c2)CCCC4)cc1,–,"inconclusive: 5.62 µM [inhibitor, single point]"
Cc1cc(C(F)(F)F)c(C#N)c(SCC(=O)Nc2nc3ccccc3s2)n1,–,"inconclusive: 7.94 µM [inhibitor, partial curve, poor fit]"
Cc1ccc(CNC(=O)N2CCN(c3ccc(C)cc3)CC2)cc1,–,"inconclusive: 35.5 µM [inhibitor, single point]"
O=C(Nc1ncccc1O)c1ccc(NS(=O)(=O)c2ccc3[nH]c(=O)[nH]c3c2)cc1,inactive: 20.4%,–
Nn1c(=S)[nH]nc(Cc2ccc(O)cc2)c1=O,–,"inconclusive: 0.891 µM [inhibitor, single point]"
COc1cc(-c2nc(S(=O)(=O)c3ccc(Br)cc3)c(N3CCOCC3)o2)cc(OC)c1OC,–,"inconclusive: 8.91 µM [inhibitor, partial curve, poor fit]"
CCCCCCCC/C=C\CCCCCCCC(=O)NCCc1ccc(O)c(O)c1,–,active: 9.2 µM
C#CCOC(=O)c1ccccc1C(=O)O,–,"inconclusive: 1.26 µM [inhibitor, single point]"
CCn1c(=O)c2sccc2n2c(CCCC(=O)NCCc3ccc(S(N)(=O)=O)cc3)nnc12,–,"inconclusive: 3.16 µM [inhibitor, single point]"
CCc1ccc(CNc2ccc3c(c2)ncn3CC)cc1,–,"inconclusive: 35.5 µM [inhibitor, single point]"
CCN1C(=O)[C@@H]2[C@H]3[C@H](O)[C@H](O)CC(=NO[C@@H](C)c4cn([C@H](CO)Cc5ccccc5)nn4)[C@@H]3CC[C@H]2C1=O,–,"inconclusive: 0.299 µM [inhibitor, single point]"
CC(=O)c1c(C)[nH]c(C(=O)OCCOc2ccccc2)c1C,–,"inconclusive: 6.31 µM [inhibitor, partial curve, poor fit]"
COc1ccc2c(Cl)c(C(=O)N/N=C/c3cccnc3)sc2c1,–,"inconclusive: 1.26 µM [inhibitor, full curve, poor fit]"

SMILES,"activity change, negative = inhibition",Potency
Cc1cccc(NC(=O)Nc2ccc(F)cc2)n1,–,"inconclusive: 35.5 µM [activator, single point]"
C=CCn1c(SCc2ccc(C(=O)Nc3nccs3)cc2)nnc1-c1ccc(C)c(Cl)c1,–,active: 11.2 µM
Cc1nc2cc(C(=O)O)ccc2s1,–,"inconclusive: 13 µM [activator, partial curve, poor fit]"
Cc1ccc(N(C(=O)c2ccco2)C(C(=O)NC2CCCC2)c2cccnc2)cc1C (stereo unspecified),–,"inconclusive: 5.62 µM [inhibitor, single point]"
COc1cc(C(=O)NNc2nc3cc4c(cc3s2)OCO4)cc(OC)c1OC,inactive: -1.88%,–
O=C(Cn1nnc2ccccc21)NC1CCCCC1,inactive: -1.77%,–
COc1ccccc1CNC(=O)Cn1c(=O)oc2cc(S(=O)(=O)N3CCCC3)ccc21,inactive: -23% [at 46.1 µM],–
Cc1ccc(N(CC(=O)NCCc2ccccc2C)S(=O)(=O)N(C)C)cc1,inactive: 0.354% [at 46.1 µM],–
CC(=O)Oc1ccc(-c2csnn2)cc1,inactive: 6.8%,–
CN(Cc1ccccc1F)Cc1cc(=O)oc2cc(O)c(Cl)cc12,–,"inconclusive: 11.2 µM [activator, partial curve, poor fit]"
COC(=O)c1ccc([C@@H]2C[C@H]3CN(Cc4cccnc4)C(=O)[C@]34CCCN24)cc1,inactive: -1.82%,–
COc1ccc(OC)c(N2C(N)=C(C#N)C(c3ccc(OC)c(O)c3)C3=C2CC(C)(C)CC3=O)c1 (stereo unspecified),–,"inconclusive: 1.41 µM [inhibitor, partial curve, poor fit]"
COc1ccc(S(=O)(=O)N2CCCCC2)cc1NC(=O)C1COc2ccccc2O1 (stereo unspecified),–,"inconclusive: 35.5 µM [inhibitor, single point]"
CC(C)C(=O)NCCc1nc2ccccc2n1CCCOc1ccc(Cl)cc1,–,"inconclusive: 35.5 µM [inhibitor, single point]"
CCOC(=O)Cc1csc(/N=C/c2c(O)n(-c3ccc(C)cc3C)c(=O)c3ccccc23)n1,–,"inconclusive: 11.2 µM [inhibitor, partial curve]"
CCN1CCN(c2cc(C)c3cc(NC(=S)N4CCCC(C)C4)ccc3n2)CC1 (stereo unspecified),–,"inconclusive: 35.5 µM [inhibitor, single point]"
O=C(NCCc1ccccc1)c1ccccc1Cl,–,"inconclusive: 4.47 µM [inhibitor, partial curve]"
O=C(C=P(c1ccccc1)(c1ccccc1)c1ccccc1)c1ccccc1-c1ccccc1C(=O)C=P(c1ccccc1)(c1ccccc1)c1ccccc1,–,active: 2.24 µM
O=C(Oc1c(-c2ccccc2)oc2ccccc2c1=O)c1ccccc1,–,"inconclusive: 11.2 µM [inhibitor, partial curve, poor fit]"
Nc1ccc(N2CCN(c3ccccc3)CC2)c(F)c1,–,"inconclusive: 1.26 µM [inhibitor, partial curve, poor fit]"
Oc1ccccc1N1CCN(C(=S)Nc2ccc(SC(F)F)cc2)CC1,–,active: 5.01 µM
CN(Cc1cccnc1)Cc1cn(C)nc1-c1ccc(Oc2ccccc2)cc1,–,"inconclusive: 35.5 µM [inhibitor, single point]"

# Reformatted as tab-separated lines: entries from further up
SMILES	activity change, negative = inhibition	Potency
Cc1ccc(N(CC(=O)NCCc2ccccc2C)S(=O)(=O)N(C)C)cc1	inactive: 0.354% [at 46.1 µM]	–
CC(=O)Oc1ccc(-c2csnn2)cc1	inactive: 6.8%	–
CN(Cc1ccccc1F)Cc1cc(=O)oc2cc(O)c(Cl)cc12	–	inconclusive: 11.2 µM [activator, partial curve, poor fit]
COC(=O)c1ccc([C@@H]2C[C@H]3CN(Cc4cccnc4)C(=O)[C@]34CCCN24)cc1	inactive: -1.82%	–
COc1ccc(OC)c(N2C(N)=C(C#N)C(c3ccc(OC)c(O)c3)C3=C2CC(C)(C)CC3=O)c1 (stereo unspecified)	–	inconclusive: 1.41 µM [inhibitor, partial curve, poor fit]
COc1ccc(S(=O)(=O)N2CCCCC2)cc1NC(=O)C1COc2ccccc2O1 (stereo unspecified)	–	inconclusive: 35.5 µM [inhibitor, single point]
CC(C)C(=O)NCCc1nc2ccccc2n1CCCOc1ccc(Cl)cc1	–	inconclusive: 35.5 µM [inhibitor, single point]
CCOC(=O)Cc1csc(/N=C/c2c(O)n(-c3ccc(C)cc3C)c(=O)c3ccccc23)n1	–	inconclusive: 11.2 µM [inhibitor, partial curve]
CCN1CCN(c2cc(C)c3cc(NC(=S)N4CCCC(C)C4)ccc3n2)CC1 (stereo unspecified)	–	inconclusive: 35.5 µM [inhibitor, single point]
O=C(NCCc1ccccc1)c1ccccc1Cl	–	inconclusive: 4.47 µM [inhibitor, partial curve]
O=C(C=P(c1ccccc1)(c1ccccc1)c1ccccc1)c1ccccc1-c1ccccc1C(=O)C=P(c1ccccc1)(c1ccccc1)c1ccccc1	–	active: 2.24 µM
O=C(Oc1c(-c2ccccc2)oc2ccccc2c1=O)c1ccccc1	–	inconclusive: 11.2 µM [inhibitor, partial curve, poor fit]
Nc1ccc(N2CCN(c3ccccc3)CC2)c(F)c1	–	inconclusive: 1.26 µM [inhibitor, partial curve, poor fit]
Oc1ccccc1N1CCN(C(=S)Nc2ccc(SC(F)F)cc2)CC1	–	active: 5.01 µM
CN(Cc1cccnc1)Cc1cn(C)nc1-c1ccc(Oc2ccccc2)cc1	–	inconclusive: 35.5 µM [inhibitor, single point]

# (listing goes on)

SMILES,"activity change, negative = inhibition",Potency
COc1ccc2cc3cc(C(=O)NCc4ccccn4)oc3nc2c1,inactive: -13.4%,–
Nc1nc(NCCO)nc(NC2CCCCC2)c1[N+](=O)[O-],–,"inconclusive: 17.8 µM [inhibitor, partial curve, poor fit]"
CCN(CC(=O)Nc1ccc(NC(C)=O)cc1)C(=O)Cc1cccc2ccccc12,–,"inconclusive: 5.01 µM [inhibitor, full curve]"
COc1ccc(NC(=O)CSc2oc(-c3ccc(C)cc3)nc2S(=O)(=O)c2ccc(C)cc2)c(OC)c1,–,"inconclusive: 6.31 µM [inhibitor, single point]"
Cc1cc2c(cc3c(SCc4ccc(Cl)cc4)nnc(C)n32)o1,inactive: 20.6% [at 46.1 µM],–
S=c1[nH]ccn1-c1ccc(Cl)cc1,–,"inconclusive: 0.447 µM [inhibitor, partial curve, poor fit]"
CSCCC(NS(=O)(=O)c1ccc2c(c1)oc(=O)n2C)C(=O)N1CCN(c2cc(Cl)ccc2C)CC1 (stereo unspecified),–,"inconclusive: 2.82 µM [inhibitor, partial curve, poor fit]"
O=C(Nc1cccnc1)c1cc(-c2ccc(Br)cc2)nc2ccccc12,–,"inconclusive: 12.6 µM [inhibitor, partial curve, poor fit]"
CN(C)S(=O)(=O)c1ccc(N2CCCC2)c(C(=O)N2CCN(c3ccc([N+](=O)[O-])cc3)CC2)c1,–,"inconclusive: 12.6 µM [inhibitor, partial curve, poor fit]"
COc1ccc(/C=N/N2C(=O)CSC2=S)cc1,–,"inconclusive: 14.6 µM [inhibitor, single point]"
Cn1c(SCC(=O)Nc2ccccc2)nc2ccccc2c1=O,–,"inconclusive: 0.562 µM [inhibitor, full curve, poor fit]"
CCOC(=O)c1c(C)nc2sc3c(=O)n(-c4ccc(C)cc4)cnc3c2c1-c1ccc(OC)cc1,–,"inconclusive: 4.47 µM [inhibitor, full curve, poor fit]"
COc1ccc(NC(=O)C2CC(=O)OC2c2ccccc2)cc1 (stereo unspecified),inactive: 3.53%,–
Cc1ccc(C)c(N=Nc2nc3ccccc3n2C)c1,–,"inconclusive: 1.46 µM [activator, full curve, poor fit]"
CCOc1ccc(N(CC(=O)NCCc2ccc(F)cc2)S(=O)(=O)c2ccccc2)cc1,–,"inconclusive: 6.31 µM [inhibitor, partial curve, poor fit]"
C=CCN(c1ccccc1)S(=O)(=O)c1cccc(C(=O)NCC(c2ccc(OC)cc2)N2CCCCC2)c1 (stereo unspecified),–,"inconclusive: 22.4 µM [inhibitor, single point]"
O=C(NC1CCC(O)CC1)c1cccc2cccnc12 (stereo unspecified),inactive: 20.2%,–
CCN1C(=O)C(C(=O)Nc2ccc(OC)cc2)C2CC1(C)Oc1ccccc12 (stereo unspecified),inactive: 16%,–
O=C(NC1CCCCC1)N(Cc1nc2ccccc2c(=O)[nH]1)C1CCCCC1,inactive: -1.9%,–
COc1cccc(CNC(=O)CN2C(=O)CSc3ccc(S(=O)(=O)N(C)C)cc32)c1,–,"inconclusive: 8.91 µM [inhibitor, partial curve, poor fit]"
CN(CC(=O)Nc1cccc(F)c1)C(=O)c1ccc(-n2cncn2)c([N+](=O)[O-])c1,–,"inconclusive: 1.26 µM [activator, single point]"
COC(=O)c1ccc(N2CCN(C(C)=O)CC2)c(NC(=O)c2cccnc2)c1,–,"inconclusive: 3.55 µM [inhibitor, partial curve, poor fit]"

# Reference: PubChem BioAssay AID540256 (National Center for Advancing Translational Sciences (NCATS), 2011)
